{
  "source": "patent US20080220056A1",
  "about": "“Treatment for liver disease” (UNIVERSITY OF SOUTHAMPTON, priority 2002, published 2008)",
  "test_system": "NF-kB DNA binding activity",
  "assay": "Electromobility shift assay for NF-kB DNA binding activity in rat hepatic stellate cells",
  "assay_type": "cell-based",
  "conditions": "activated rat HSC",
  "method": "Crude high salt extractable nuclear protein was prepared from activated hepatic stellate cells for analysis of NF-kB DNA binding activity essentially as described (Elsharkawy et al., supra), aliquoted and stored at −80° C. until required. Extract protein concentrations were determined using the Lowry colorimetric assay (Lowry et al., supra) with bovine serum albumin as standard. A double stranded 5′ end labeled radiolabeled oligonucleotide [sense 5′-[…]-[…] (SEQ ID NO:1)] containing a consensus NF-kB DNA binding site as underlined (Baldwin et al., Annu. Rev. Immunol., (1996) 14:649-681) was used to determine NFkB DNA binding activity in crude nuclear extracts (Elsharkawy et al., supra).\nThe effect of gliotoxin on NF-kB activity in hepatic stellate cells was investigated. Culture-activated (14-day) rat hepatic stellate cells were incubated in the presence or absence of 10 ng/mL TNF-α fifteen minutes after addition of:\nAfter a further 30 minutes, and before any significant morphologic changes, cells were washed with ice-cooled PBS, nuclear extracts prepared, and NF-kB DNA binding activity assessed by gel shift analysis. […] Each lane contained […] of protein and the results were the same for at least three separate experiments.",
  "note": "At least one structure is not confirmed: it was looked up by name or label, or the drawing left a doubt.",
  "data": [
    {"smiles": "C[C@@H]1C[C@H]2[C@@H]3CCC4=CC(=O)C=C[C@]4(C)[C@@]3(F)[C@@H](O)C[C@]2(C)[C@@]1(O)C(=O)CO", "note": "[dexamethasone]", "values": [
      {"measurement": "TNF-α-inducible NF-kB DNA binding activity", "setting": "10 ng/mL TNF-α, same concentrations as for constitutive activity", "value": "little effect"},
      {"measurement": "constitutive NF-kB DNA binding activity", "setting": "gliotoxin 1.5 μmol/L, N-acetyl cysteine 5 mM, calpain inhibitor 1 50 μM, dexamethasone 0.5 μm, pentoxyfilline 3.6 mM", "value": "little effect"}
    ]}
  ]
}
